One may read the AC50 as the midpoint of the concentration-response curve, whichever way the signal moves.

This assay is described as follows: qHTS Assay for Modulators of Lamin A Splicing. To be noted: HeLa LMNA splicing GFP/RFP minigene ratio, 48 h. A digest of the protocol: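 Read-out is the ratio of GFP to DsRed2 object intensity, acquired by 488 nm laser-scanning cytometry on HeLa lamin A-EGFP minigene reporter cells. Compound incubation 48 hrs at 37 °C in Opti-MEM with 2% FBS; DMSO 0.5% final.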
(In general: qHTS replaces the single test concentration by a dilution series.)

[1] abbreviates: measured here: GFP splicing reporter channel.
The mark [2] stands for this setting: measured here: RFP viability control channel.

Molecules are shown by their SMILES. This is one part of the list. The main result of the screen is listed elsewhere. These columns were measured beside it and carry no call. Compounds called inactive in the main read-out are mostly missing here. Potencies come from curve fits of mixed quality, noted in brackets.

For `CC(C)c1ccccc1-n1c(SCC(=O)N2CCN(c3ccccc3)CC2)nnc1-c1cccnc1`, the AC50 is, setting by setting: under setting [1], 35.5 µM [falling, single point]; under setting [2], 12.6 µM [falling, partial curve].
For `CN1CCN(CCNC(=O)c2cnn(-c3ccc(Cl)cc3)c2C2CCN(C(=O)OC(C)(C)C)CC2)CC1`, under setting [2], the AC50 is 0.501 µM [rising, full curve, poor fit].
On the same count and under the same terms, then `COC(=O)c1ccc(NC(=O)CN2CCN(c3ccccc3C)CC2)cc1`, with 15.8 µM [rising, single point].
As to `CCN(C(=O)C1CCN(S(=O)(=O)c2c(C)noc2/C=C/c2ccc(C)cc2)CC1)c1cccc(C)c1`, under setting [2], the AC50 was 7.08 µM [falling, partial curve, poor fit].
Turning to `CN(C(=O)c1cnc(N2CCN(c3ncccn3)CC2)c2ccccc12)c1ccc(Cl)cc1`, the AC50 is, setting by setting: under setting [1], 1.41 µM [falling, partial curve]; under setting [2], 1.26 µM [falling, partial curve].
`O=C(CCN1CCOCC1)N/N=C/c1cc(Br)cc(Br)c1O`: under setting [1], the AC50 is 15.8 µM [falling, partial curve, poor fit].
The same measure, in the same setting: then `COc1ccccc1-c1nccc(NCc2ccccc2)n1`, with 5.62 µM [falling, partial curve, poor fit].
Take `CCC(=O)N1CCc2cc(S(=O)(=O)NC(Cc3ccccc3)C(=O)O)ccc21` (stereo unspecified): under setting [2], the AC50 is 0.01 µM [falling, full curve].
Turning to `O=C(COC(=O)c1ccccc1C(=O)c1ccc(Cl)cc1)NCCc1ccccc1`, the half-maximal activity concentration (AC50) under setting [2] was 35.5 µM [rising, single point].
As to `Cc1ccc(S(=O)(=O)Nc2ccc3nc(-c4cccc(Cl)c4)oc3c2)cc1`, the AC50 under setting [2] was 35.5 µM [falling, single point].
Regarding `O=C(Nc1nc2ccccc2s1)c1cc(-c2ccco2)nc2ccccc12`, the AC50 by setting is: under setting [1], 35.5 µM [rising, single point]; under setting [2], 35.5 µM [rising, single point].
Turning to `CC(=Nc1ccc(C)cc1C)c1sc2ccccc2c1O`, the AC50 under setting [1] was 7.08 µM [rising, partial curve].
With `Cc1ccc(N(CC(C)C)S(=O)(=O)c2nnc(NC(=O)C(C)C)s2)cc1`, the AC50 under setting [1] was 35.5 µM [falling, single point].
Turning to `CCN(C(=O)[C@@H]1CCCN1C(=O)c1cccs1)c1nc2cc(Cl)ccc2s1`, the AC50 under setting [2] was 14.1 µM [rising, partial curve].
Turning to `CN[C@H]1[C@@H](O)[C@@H](NC)[C@@H]2O[C@@]3(O)C(=O)C[C@@H](C)O[C@H]3O[C@H]2[C@H]1O`, the AC50 reads like this: under setting [1], 3.16 µM [falling, single point]; under setting [2], 10 µM [falling, single point].
With `COc1ccc(-c2nc(NC(=O)c3cc(C(C)(C)C)nn3C)sc2C)cc1`, the AC50 was 14.1 µM [rising, partial curve] under setting [1] and 14.1 µM [rising, single point] under setting [2].
With `O=C1N/C(=C\c2ccccc2)c2ccccc21`, under setting [2], the AC50 was 12.6 µM [rising, single point].
`Cc1ccc(NC(=O)c2ccc(NCCCN3CCOCC3)c([N+](=O)[O-])c2)cc1Cl`: under setting [2], the AC50 was 12.6 µM [rising, partial curve].
For the compound `O=C(Nc1nnc(Cc2c[nH]c3ccccc23)s1)c1ccc(Cl)cc1Cl`, the AC50 under setting [2] was 25.1 µM [rising, partial curve].
The same measure, in the same setting: for `COc1ccc(-c2nc3sc(CCNS(=O)(=O)c4ccccc4)c(C)n3n2)cc1` the value was 0.00891 µM [falling, full curve, poor fit]; for `CCC(=O)Oc1ccc(C(=O)Nc2ccc3c(c2)C(=O)N(C2CCCCC2)C3=O)cc1`, 14.1 µM [rising, single point]; for `O=C(COc1cccc(C(F)(F)F)c1)Nc1ccc(S(=O)(=O)N2CCCC2)cc1`, 22.4 µM [rising, single point].
On to `CCOC(=O)C1CCN(C(=O)c2c(C)oc3c2C(=O)c2ccccc2C3=O)CC1`, for which the AC50 under setting [2] was 0.126 µM [rising, partial curve, poor fit].
On the same count and under the same terms, then `c1ccc(-c2ccc(-c3ccccn3)nn2)nc1`, with 22.4 µM [rising, single point].
On the same count and under the same terms, then `Cc1cc2oc(=O)cc(Cn3nnc(-c4ccc(Cl)cc4)n3)c2cc1C(C)C`, with 2.51 µM [rising, partial curve].
As for `COc1ccc(Br)cc1CNC(=O)CN1C(=O)c2cccnc2Oc2ccc(C)cc21`, the AC50 is, setting by setting: under setting [1], 11.2 µM [falling, partial curve]; under setting [2], 14.1 µM [falling, single point].
As to `CCn1c(=O)c(C(=O)NCCN2CCCCC2)c(O)c2ccccc21`, under setting [2], the AC50 was 5.01 µM [rising, full curve, poor fit].
Consider `Cc1ccc2cccc(OCC(=O)Nc3ccc4c(c3)OCO4)c2n1`, for which the AC50 under setting [1] is 20 µM [falling, partial curve, poor fit].
For `Cc1nnc(SCC(=O)c2c(N)n(C)c(=O)n(C)c2=O)[nH]c1=O`, the half-maximal activity concentration (AC50) under setting [2] was 1 µM [falling, full curve, poor fit].
`CSc1ccc(CCNC(=O)CCCn2c(=O)c3cccn3c3ccccc32)cc1`: the AC50 is 25.1 µM [falling, single point] under setting [1] and 35.5 µM [falling, single point] under setting [2].
On to `O=Cc1ccc(N2CCCC2)o1`, for which, under setting [1], the AC50 was 35.5 µM [rising, single point].
Take `CCOCCOc1nc2c(c(=O)n(C)c(=O)n2C)n1CCc1ccccc1`: the AC50 under setting [2] was 35.5 µM [rising, single point].
For the compound `O=C(Nc1ccccc1)N1CCN(c2nc3ccccc3s2)CC1`, the AC50 was 35.5 µM [rising, single point] under setting [1] and 31.6 µM [rising, single point] under setting [2].
For `Cc1cc(N2CCN(S(=O)(=O)c3ccc(C)c(C)c3)CC2)c2ccccc2n1`, the AC50 runs as follows: under setting [1], 12.6 µM [rising, partial curve]; under setting [2], 15.8 µM [rising, single point].
`N#Cc1ccc(-c2nc3ccccc3nc2-c2ccccc2)cc1C#N`: the AC50 under setting [2] is 6.31 µM [rising, single point].
For `O=C(c1cn(-c2ccccc2)nc1-c1cccs1)N1CCN(c2ccc(F)cc2)CC1`, the AC50 reads like this: under setting [1], 12.6 µM [rising, partial curve]; under setting [2], 15.8 µM [rising, single point].
